Measured values published in patent US9540389B2, “Antimicrobial potentiators” (priority 2013, dated 2017).
At least one read-out could not be matched to a standard name with certainty.

Tested on: Escherichia coli AB1157
Conditions: E. coli AB1157; for Levofloxacin MPC2: minimal concentration of test compound that decreases the MIC of levofloxacin by 2 fold; for Levofloxacin MPC4: minimal concentration of test compound that decreases the MIC of levofloxacin by 4 fold; for Levofloxacin MPC8: minimal concentration of test compound that decreases the MIC of levofloxacin by 8 fold; for Piperacillin MPC2: minimal concentration of test compound that decreases the MIC of piperacillin by 2 fold; for Piperacillin MPC4: minimal concentration of test compound that decreases the MIC of piperacillin by 4 fold; for Piperacillin MPC8: minimal concentration of test compound that decreases the MIC of piperacillin by 8 fold

SMILES | Levofloxacin MPC2 | Levofloxacin MPC4 | Levofloxacin MPC8 | Piperacillin MPC2 | Piperacillin MPC4 | Piperacillin MPC8
CC1CN(c2nc(SCCc3ccc(NC(=O)OC(C)(C)C)cc3)c(C#N)c3c2COC(C(C)C)C3)CC(C)O1 (stereo not drawn) [MBX3327] | ≧100 μM | ≧100 μM | ≧100 μM | 3.13 µM | ≧100 μM | ≧100 μM
CN1CCCN(c2nc(SCCc3cccc([N+](=O)[O-])c3)c(C#N)c3c2COC(C)(C)C3)CC1 [MBX2825] | ≦1.56 μM | 50 µM | ≧100 μM | ≦3.125 μM | 3.125 µM | 25 µM
CC1(C)Cc2c(C#N)c(SCC(=O)c3ccccc3)nc(N3CCOCC3)c2CO1 [MBX2743] | ≧12.5 μM | ≧12.5 μM | ≧12.5 μM | ≦0.2 μM | ≧12.5 μM | ≧12.5 μM
CC1(C)Cc2c(C#N)c(SCCc3ccccc3)nc(N3CCCC3)c2CO1 [MBX2403] | ≦1.56 μM | ≧100 μM | ≧100 μM | 3.125 µM | ≧100 μM | ≧100 μM
CC1CN(c2nc(NCCc3ccccc3)c(C#N)c3c2COC(C)(C)C3)CC(C)O1 (stereo not drawn) [MBX3330] | ≦1.56 μM | ≧100 μM | ≧100 μM | ≦1.56 μM | 6.25 µM | ≧100 μM
CN1CCCN(c2nc(SCCc3cccc4ccccc34)c(C#N)c3c2COC(C)(C)C3)CC1 [MBX2816] | ≦1.56 μM | 3.13 µM | ≧100 μM | ≦1.56 μM | 12.5 µM | ≧100 μM
CC1(C)Cc2c(C#N)c(SCCc3ccccc3)nc(N3CCSCC3)c2CO1 [MBX2471] | ≦1.56 μM | ≧100 μM | ≧100 μM | ≦1.56 μM | ≦1.56 μM | ≧100 μM
CC1CN(c2nc(SCCc3ccc(N)cc3)c(C#N)c3c2COC(C)(C)C3)CC(C)O1 (stereo not drawn) [MBX3106] | ≦0.195 μM | 0.78 µM | ≧12.5 μM | ≦0.195 μM | 0.78 µM | 3.12 µM
COc1cccc(CCSc2nc(N3CCOCC3)c3c(c2C#N)CC(C)(C)OC3)c1 [MBX2854] | ≦1.56 μM | 6.25 µM | ≧100 μM | ≦1.56 μM | ≦1.56 μM | 6.25 µM
COCCN1C(C)CN(c2nc(SCCc3ccc(OC)cc3)c(C#N)c3c2COC(C)(C)C3)CC1C (stereo not drawn) [MBX3223] | ≦1.56 μM | 3.13 µM | ≧100 μM | ≦1.56 μM | 3.13 µM | 12.5 µM
CC1CN(c2nc(SCCc3c[nH]c4ccccc34)c(C#N)c3c2COC(C)(C)C3)CC(C)O1 (stereo not drawn) [MBX2873] | ≦1.56 μM | ≧100 μM | ≧100 μM | ≦1.56 μM | ≦1.56 μM | ≧100 μM
COCCOc1cccc(CCSc2nc(N3CCOCC3)c3c(c2C#N)CC(C)(C)OC3)c1 [MBX2896] | ≦1.56 μM | ≦1.56 μM | ≧100 μM | ≦1.56 μM | ≦1.56 μM | 3.125 µM
C=CC(=O)Nc1ccc(CCSc2nc(N3CC(C)NC(C)C3)c3c(c2C#N)CC(C)(C)OC3)cc1 (stereo not drawn) [MBX3311A] | ≦1.56 μM | 6.25 µM | ≧100 μM | ≦1.56 μM | ≦1.56 μM | 6.25 µM
COCCn1cc(CCSc2nc(N3CCOCC3)c3c(c2C#N)CC(C)(C)OC3)c2ccccc21 [MBX2886] | ≦1.56 μM | 3.13 µM | ≧100 μM | ≦1.56 μM | 3.13 µM | ≧100 μM
CC1(C)Cc2c(C#N)c(SCCc3ccc(S(=O)(=O)O)cc3)nc(N3CCOCC3)c2CO1 [MBX2452] | 50 µM | ≧100 μM | ≧100 μM | 12.5 µM | >100 µM | ≧100 μM
COCCN1CCN(c2nc(SCCc3cccc(OC)c3)c(C#N)c3c2COC(C)(C)C3)CC1 [MBX2897] | ≦1.56 μM | 6.25 µM | ≧100 μM | ≦1.56 μM | 3.13 µM | 25 µM
COCCN1C(C)CN(c2nc(SCCc3cccc(OC)c3)c(C#N)c3c2COC(C)(C)C3)CC1C (stereo not drawn) [MBX3224] | ≦1.56 μM | 3.13 µM | ≧100 μM | ≦1.56 μM | 3.13 µM | ≧100 μM
COCCN1CCN(c2nc(SCCc3ccc(Br)cc3)c(C#N)c3c2COC(C)(C)C3)CC1 [MBX2900] | 12.5 µM | ≧100 μM | ≧100 μM | ≦1.56 μM | ≧100 μM | ≧100 μM
COCCN1CCN(c2nc(SCCc3ccc(OC)c(OC)c3)c(C#N)c3c2COC(C)(C)C3)CC1 [MBX2931] | ≦0.195 μM | 1.56 µM | ≧12.5 μM | ≦0.39 μM | 0.39 µM | 12.5 µM
COc1ccccc1CCSc1nc(N2CCOCC2)c2c(c1C#N)CC(C)(C)OC2 [MBX3348] | ≦1.56 μM | ≧100 μM | ≧100 μM | ≦1.56 μM | 3.13 µM | ≧100 μM
CC1(C)Cc2c(C#N)c(SCC(O)c3ccccc3)nc(N3CCOCC3)c2CO1 (stereo not drawn) [MBX3221] | 3.13 µM | ≧100 μM | ≧100 μM | 25 µM | ≧100 μM | ≧100 μM
N#Cc1c(N)sc(=S)c2c1CCOC2 [MBX2810] | ≧100 μM | ≧100 μM | ≧100 μM | ≧100 μM | ≧100 μM | ≧100 μM
CC1CN(c2nc(SCCc3cccc(Br)c3)c(C#N)c3c2COC(C)(C)C3)CC(C)O1 (stereo not drawn) [MBX2871] | ≦1.56 μM | ≧100 μM | ≧100 μM | ≦1.56 μM | ≧100 μM | ≧100 μM
